Data on 27 compounds can be found in PubChem BioAssay AID248 (DTP/NCI, 2004).

Molecules are shown by their SMILES. The list does not hold the whole screen: it gathers tests that were run many times, whatever their T/C, doses with no T/C, and many T/C values between a quarter and a half above the control. Further doses and runs are listed elsewhere. T/C is the treated group as % of the vehicle group. Some doses have a count of surviving animals in place of a T/C: the source files T/C as zero there, which appears to mark a toxic dose or a test without result, not a measured value. Some doses without a T/C left all or most animals alive at the check, yet need not have been tolerated: the source hardly ever lists a survival T/C far under the control, and the zero likely stands for such cases as well. Survivors were counted at the toxicity check, usually on the fifth day, unless a day is given; later deaths do not show. Schedule codes are those of the source, read here as Q, the interval in days (D) or hours (H), X, the number of doses. Some schedule codes hold Z or #, which are not explained here. Some molecules as drawn cover several salts, stereoisomers or complexes of the source; a dose is that of the sample tested. Some entries were tested several times; their values stand side by side, smallest first. For survival time, this PubChem deposit counts one and a half times the control or more as active, and values a quarter to a half above the control carry no call in these data; other NCI protocols may use other cut-offs.

This experiment concerns L1210 leukemia ip in BDF1 mice, survival T/C. Put plainly: NCI In Vivo Anticancer Drug Screen. Data for tumor model L1210 Leukemia (intraperitoneal) in B6D2F1 (BDF1) mice. Particulars: T/C endpoint: mean survival time, higher T/C = longer survival.
[1] abbreviates: dose: 100.0 mg/kg/injection, schedule: Q01DX001 (ip), vehicle: saline.
Where [2] appears, read: dose: 200.0 mg/kg/injection, schedule: Q01DX001 (ip), vehicle: saline.
The mark [3] stands for this setting: dose: 400.0 mg/kg/injection, schedule: Q01DX001 (ip), vehicle: saline.
Where [4] appears, read: dose: 100.0 mg/kg/injection, schedule: Q01DX009 (ip), vehicle: Klucel (hydroxypropylcellulose) (HPC).
[5] abbreviates: dose: 200.0 mg/kg/injection, schedule: Q01DX009 (ip), vehicle: Klucel (hydroxypropylcellulose) (HPC).
[6] abbreviates: dose: 400.0 mg/kg/injection, schedule: Q01DX009 (ip), vehicle: Klucel (hydroxypropylcellulose) (HPC).
Where [7] appears, read: dose: 150.0 mg/kg/injection, schedule: Q01DX001 (ip), vehicle: saline.
[8] abbreviates: dose: 300.0 mg/kg/injection, schedule: Q01DX001 (ip), vehicle: saline.
Setting [9] is: dose: 100.0 mg/kg/injection, schedule: Q04DX003 (ip), vehicle: Klucel (hydroxypropylcellulose) (HPC).
[10] abbreviates: dose: 200.0 mg/kg/injection, schedule: Q04DX003 (ip), vehicle: Klucel (hydroxypropylcellulose) (HPC).
The mark [11] stands for this setting: dose: 400.0 mg/kg/injection, schedule: Q04DX003 (ip), vehicle: Klucel (hydroxypropylcellulose) (HPC).

`O=C(Nc1ccc(C2=NCCN2)cc1)c1ccc([N+](=O)[O-])c(C(=O)Nc2ccc(C3=NCCN3)cc2)c1`: the T/C (dose: 38.0 mg/kg/injection, schedule: Q01DX Z (ip), vehicle: carboxymethylcellulose (CMC)) was 139 % of control. Further, the survivor count (dose: 76.0 mg/kg/injection, schedule: Q01DX Z (ip), vehicle: carboxymethylcellulose (CMC)) is 0 of 6.

Turning to `C=C[N+](C)(C)C`, the survivor count was 2 of 6 (dose: 80.0 mg/kg/injection, schedule: Q01DX001 (ip), vehicle: saline); 0 of 6 under setting [1]; 0 of 6 under setting [2]; 0 of 6 under setting [3].

Take `O=C1C=CC(=O)N1C(c1ccccc1)c1ccccc1`: the survivor count is 3 of 3 under setting [4]; 3 of 3 (dose: 100.0 mg/kg/injection, schedule: Q04DX002 (ip), vehicle: Klucel (hydroxypropylcellulose) (HPC)); 0 of 3 under setting [5]; 0 of 3 under setting [6]; 2 of 3 (dose: 400.0 mg/kg/injection, schedule: Q04DX002 (ip), vehicle: Klucel (hydroxypropylcellulose) (HPC)).

For `CCNC(=O)c1cc(NC(=O)c2ccc(C(=O)Nc3cc(C(=O)NCC)cc(C4=NCCN4)c3)cc2)cc(C2=NCCN2)c1`, the survivor count (dose: 114.0 mg/kg/injection, schedule: Q01DX015 (ip), vehicle: water) is reported as 0 of 6.

With `CN1C(=O)NC(C)(c2cccs2)C1=O` (centres undefined), the survivor count (dose: 400.0 mg/kg/injection, schedule: Q01DX009 (ip), vehicle: saline with Tween-80) is on record as 3 of 6.

As for `CC1CC(C#N)C(CCC#N)CC1C` (centres undefined), the survivor count under setting [6] is 0 of 6.

Take `NC(N)=N/N=C/c1cccc(Cl)c1Cl`: the survivor count is recorded as 3 of 6 (dose: 62.5 mg/kg/injection, schedule: Q01DX Z (ip), vehicle: saline); 3 of 6 (dose: 125.0 mg/kg/injection, schedule: Q01DX Z (ip), vehicle: saline); 0 of 6 (dose: 250.0 mg/kg/injection, schedule: Q01DX Z (ip), vehicle: saline); 0 of 6 (dose: 500.0 mg/kg/injection, schedule: Q01DX Z (ip), vehicle: saline).

For the compound `CCN1CCCC(Nc2cc(C)nc(/N=C(\N)Nc3ccc(Cl)c(Cl)c3)n2)C1` (centres undefined), the survivor count reads like this: under setting [7], 3 of 6; under setting [8], 0 of 6.

Turning to `CC[n+]1c(C)ccc2ccccc21`, the survivor count reads like this: under setting [1], 2 of 4; under setting [4], 0 of 6; under setting [9], 0 of 6 and 5 of 6; under setting [2], 0 of 4; under setting [5], 0 of 6; under setting [10], 0 of 6. In addition, the survivor count by setting is: under setting [3], 0 of 4; under setting [6], 0 of 6; under setting [11], 0 of 6.

On to `CCN=C(Nc1ccc(C(=NC)NCC)cc1)c1ccc(C(=NCC)Nc2ccc(C(=NC)NCC)cc2)cc1`, for which the survivor count is 1 of 6 and 6 of 6 (dose: 6.0 mg/kg/injection, schedule: Q01DX Z (ip), vehicle: saline); 0 of 6 (dose: 10.0 mg/kg/injection, schedule: Q01DX Z (ip), vehicle: saline); 0 of 6 (dose: 15.0 mg/kg/injection, schedule: Q01DX Z (ip), vehicle: saline); 0 of 6 (dose: 22.0 mg/kg/injection, schedule: Q01DX Z (ip), vehicle: saline).

`CCCCNCC#N`: the survivor count reads like this: under setting [1], 1 of 4; under setting [2], 0 of 4; under setting [3], 0 of 4.

As for `[Co+2].[NH-]C(CC(N)=O)C(=O)O.[NH-]C(CC(N)=O)C(=O)O` (centres undefined), the survivor count (dose: 400.0 mg/kg/injection, schedule: Q04DX002 (ip), vehicle: saline) is recorded as 0 of 3.

Turning to `N#Cc1cn(-c2cccc(Cl)c2)c2ncccc12`, the survivor count is given as 3 of 3 (dose: 100.0 mg/kg/injection, schedule: Q01DX001 (ip), vehicle: saline with Tween-80); 3 of 3 under setting [1]; 3 of 3 (dose: 200.0 mg/kg/injection, schedule: Q01DX001 (ip), vehicle: saline with Tween-80); 3 of 3 (dose: 400.0 mg/kg/injection, schedule: Q01DX001 (ip), vehicle: saline with Tween-80).

For the compound `CC(=O)Nc1ccc[n+](Cc2ccc(S(=O)(=O)F)cc2)c1`, the survivor count reads like this: under setting [9], 1 of 6 and 3 of 6; under setting [10], 0 of 6; under setting [11], 0 of 6.

In the case of `Clc1ccc2nsnc2c1`, the survivor count (dose: 400.0 mg/kg/injection, schedule: Q01DX001 (ip), vehicle: Klucel (hydroxypropylcellulose) (HPC)) is reported as 0 of 6.

Consider `CC[Si](CC)(CC)c1ccc(CCNCCS)s1`, for which the survivor count (dose: 300.0 mg/kg/injection, schedule: Q04DX003 (ip), vehicle: saline) is reported as 0 of 6.

With `CN(C)CCCN1Cc2ccccc2Cc2ccccc21`, the survivor count (dose: 200.0 mg/kg/injection, schedule: Q04DX003 (ip), vehicle: saline) was 2 of 4 and the survivor count (dose: 400.0 mg/kg/injection, schedule: Q04DX003 (ip), vehicle: saline) is on record as 0 of 4.

Regarding `CCN(CC)CCCC(C)Nc1cc(N)nc2nc(-c3cc(OC)c(OC)c(OC)c3)cnc12` (centres undefined) (tested in a mixture with another compound), the survivor count was 0 of 6 under setting [7] and 0 of 6 under setting [8].

Take `CCCCCCC(/C=N\NC(=O)c1cccc2ccccc12)=C\c1ccccc1`: the survivor count is, setting by setting: under setting [1], 4 of 4; under setting [3], 1 of 4.

`Clc1ccc2c(Cl)ncnc2c1`: the survivor count reads like this: (dose: 200.0 mg/kg/injection, schedule: Q01DX009 (ip), vehicle: saline) 2 of 6; under setting [3], 3 of 6.

In the case of `C=CCNC(=S)NNC(=S)NNc1ccccc1`, the survivor count (dose: 400.0 mg/kg/injection, schedule: Q01DX009 (ip), vehicle: acetone) is given as 6 of 6.

`CC/C(C)=N/NCCO`: the survivor count is 3 of 6 (dose: 50.0 mg/kg/injection, schedule: Q01DX009 (ip), vehicle: saline); 0 of 3 under setting [1]; 0 of 3 under setting [2].

Take `CC1CN=C(c2cccc(NC(=O)Nc3ccc(NC(=O)Nc4cccc(C5=NCC(C)N5)c4)cc3)c2)N1` (centres undefined): the T/C runs as follows: (dose: 9.0 mg/kg/injection, schedule: Q01DX Z (ip), vehicle: carboxymethylcellulose (CMC)) 128 % of control; (dose: 18.0 mg/kg/injection, schedule: Q01DX Z (ip), vehicle: carboxymethylcellulose (CMC)) 129 and 138 % of control; (dose: 54.0 mg/kg/injection, schedule: Q01DX Z (ip), vehicle: carboxymethylcellulose (CMC)) 139 % of control. The survivor count (dose: 144.0 mg/kg/injection, schedule: Q01DX Z (ip), vehicle: carboxymethylcellulose (CMC)) is recorded as 6 of 6.

Regarding `O=C(O)c1cccc(-c2ccccc2)c1O`, the survivor count under setting [3] was 0 of 4.

In the case of `CC1OC(n2cnc3c(N)nc(F)nc32)C(O)C1O` (centres undefined), the survivor count (dose: 75.0 mg/kg/injection, schedule: Q01DX001 (ip), vehicle: other) is listed as 3 of 6 and the survivor count (dose: 150.0 mg/kg/injection, schedule: Q01DX001 (ip), vehicle: other) is 0 of 6.

As for `CCN(CC)Cc1cc(-n2cnc3c(Cl)ncnc32)ccc1O`, the survivor count (dose: 25.0 mg/kg/injection, schedule: Q04DX003 (ip), vehicle: saline) is 2 of 6; the survivor count (dose: 50.0 mg/kg/injection, schedule: Q04DX003 (ip), vehicle: saline) was 0 of 6; the survivor count (dose: 100.0 mg/kg/injection, schedule: Q04DX003 (ip), vehicle: saline) is on record as 0 of 6.

For the compound `NC(N)=N/N=C\c1ccc2ccccc2c1`, where the note is “dose: 200.0 mg/kg/injection, schedule: Q04DX003 (ip), vehicle: saline with Tween-80”, the survivor count is 6 of 6.
